From patent US20220002440A1
Results are given in words; binding and its absence hold for the method and conditions named. Some binding calls cover weakened binding; strength is not graded here.

Amino acid sequences for entries named in this document (tags omitted). A change or cut given only in a name is not applied to a line headed by its entry.
UniProt P36222: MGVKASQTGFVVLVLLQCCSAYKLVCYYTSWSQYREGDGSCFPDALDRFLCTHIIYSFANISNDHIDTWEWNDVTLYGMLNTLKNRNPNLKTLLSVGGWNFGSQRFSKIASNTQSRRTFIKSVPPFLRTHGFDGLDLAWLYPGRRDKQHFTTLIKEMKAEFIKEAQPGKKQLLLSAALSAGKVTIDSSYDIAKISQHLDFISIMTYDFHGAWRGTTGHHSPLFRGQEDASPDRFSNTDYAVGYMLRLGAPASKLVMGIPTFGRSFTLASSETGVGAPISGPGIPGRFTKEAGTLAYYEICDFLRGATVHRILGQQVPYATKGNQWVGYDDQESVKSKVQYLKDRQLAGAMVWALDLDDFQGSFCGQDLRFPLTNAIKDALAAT

Columns and labels:
[1] = target: recombinant human CHI3L1 protein (human) (UniProt P36222); assay: two-site sandwich ELISA, AB1 as capture antibody, FIG. 3
[2] = target: recombinant human CHI3L1 protein (human) (UniProt P36222); assay: two-site sandwich ELISA, AB1 bound to the solid phase
[3] = target: recombinant human CHI3L1 protein (human) (UniProt P36222); assay: ELISA, FIG. 2

Measured: binding

B1: AB1 (CH568) (antibody, mouse IgG1, kappa, V domains shown)
VH: QVQLQQTGAELVKPGASVKMSCKASGYTFTSYNMHWLKQTPGQGLEWIGLISPGNGDTSYNQKFKGKATLTADKSSNTAYMQLSSLTSEDSAVYFCARGGPTVVAHYYAMDYWGQGTSVTVSS
VL: QIVLTQSPAIMSASPGERVTMTCSASSRVSYMHWYQQKSGTSPKRWIYDTSNLASGVPARFSGSGSGTSYSLTISTMEAEDAATYYCQQWSSNPLTFGAGTKLELKR
binds: all assays above
